From publication PMC12311239
No constants are given. Whether binding was seen depends on the method and setting. In cells and extracts the contact can be indirect.

Amino acid sequences for entries named in this document (tags omitted).
UniProt Q96RR4: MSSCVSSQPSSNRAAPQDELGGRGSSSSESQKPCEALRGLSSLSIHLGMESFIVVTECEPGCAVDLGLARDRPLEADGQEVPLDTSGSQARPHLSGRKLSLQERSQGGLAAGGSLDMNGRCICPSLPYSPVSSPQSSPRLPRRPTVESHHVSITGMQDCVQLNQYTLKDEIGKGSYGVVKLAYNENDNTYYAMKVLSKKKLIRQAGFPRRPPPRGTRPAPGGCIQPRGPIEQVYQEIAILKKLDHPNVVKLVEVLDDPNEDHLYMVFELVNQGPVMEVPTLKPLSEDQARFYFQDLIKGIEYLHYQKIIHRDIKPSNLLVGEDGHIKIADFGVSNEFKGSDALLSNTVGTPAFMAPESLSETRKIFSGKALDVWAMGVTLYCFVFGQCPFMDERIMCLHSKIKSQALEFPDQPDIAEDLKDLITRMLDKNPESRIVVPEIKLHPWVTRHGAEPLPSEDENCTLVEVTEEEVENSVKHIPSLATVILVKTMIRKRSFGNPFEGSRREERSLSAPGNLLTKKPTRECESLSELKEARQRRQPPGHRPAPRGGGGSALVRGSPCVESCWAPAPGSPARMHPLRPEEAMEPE
UniProt P48539: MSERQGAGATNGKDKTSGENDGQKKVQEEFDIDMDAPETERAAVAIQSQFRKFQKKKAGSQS

Biological target: Calcium/calmodulin-dependent kinase kinase 2 (human (endogenous in LNCaP and C4-2B)) (UniProt Q96RR4)
Test: co-IP; total lysates of LNCaP and C4-2B cells; IgG as negative control; also after PCP4 siRNA in LNCaP and PCP4 overexpression in C4-2B (Figure 6G); which antibody precipitated is not given

For “Purkinje cell protein 4 (from UniProt P48539 1-62)”, the binding was “no binding”.
